According to PubChem BioAssay AID504467 (National Center for Advancing Translational Sciences (NCATS), 2011):
In all, about 330,000 compounds went through this assay and about 7,700 (2.3%) were called active. This list was built around the results that the source calls inconclusive (neither active nor inactive); the mix of calls is not that of the screen. Calls come from the whole dose curve; as a rule, active = well fitted inhibition curve with a large enough effect; inconclusive = small, poorly fitted or top-dose-only effect, or effect the other way; inactive = flat fitted curve, though single readings scatter. Potencies of inconclusive entries are doubtful fits and often do not repeat.

test: qHTS screen for small molecules that inhibit ELG1-dependent DNA repair in human embryonic kidney (HEK293T) cells expressing luciferase-tagged ELG1; conditions: HEK293T ELG1-luciferase reporter, luminescence, 16 h, DNA damage induced by 5-fluorouridine; series mostly up to 46.1 µM; note: nearly all actives have a fitted effect of over 55% in size
In short: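 Cells (2,000 per well) received 5-fluorouridine plus test compound or DMSO and were incubated 16 hr at 37 °C, 5% CO2. Luciferase activity was read by luminescence 30 min after ONE-Glo addition; signal suppression marked inhibition of damage-induced ELG1 function.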
Potency is the fitted concentration of half-maximal effect.

SMILES | Potency
Cc1ccc(C(=O)C(C)OC(=O)CN2C(=O)NC3(CCCC3)C2=O)cc1 (stereo not drawn) | inactive
CNC(=S)N1N=C(c2ccc(OC)cc2)CC1c1ccc(N(C)C)cc1 (stereo not drawn) | inactive
Cc1cccc(N(Cc2cc(=O)[nH]c3ccccc23)C(=O)CCl)c1 | inconclusive: 25.9 µM [inhibitor, single point]
Cn1c(=O)n(Cc2ccccc2F)c(=O)c2c1nc1n2CCN1Cc1ccco1 | inconclusive: 25.9 µM [inhibitor, single point]
COCCn1c(CN2CCC(Cc3ccccc3)CC2)nc2c1c(=O)n(C)c(=O)n2C | inconclusive: 6.51 µM [inhibitor, single point]
CCCCCCCSc1nsc(N)n1 | inconclusive: 29.1 µM [activator, single point]
O=S(=O)(NC1CC(NS(=O)(=O)OCC(Cl)(Cl)Cl)C2CCCCC12)OCC(Cl)(Cl)Cl (stereo not drawn) | inconclusive: 29.1 µM [inhibitor, partial curve, poor fit]
O=C(NNc1c2ccccc2nc2ccccc12)c1cc2ccccc2cc1O | active: 13 µM
Cc1ccc(-c2nnc(N3CC(C)OC(C)C3)c3ccccc23)cc1 (stereo not drawn) | inconclusive: 16.4 µM [inhibitor, single point]
CCc1noc(C)c1C(=O)Nc1cc(S(=O)(=O)N2CCOCC2)ccc1OC(C)C | inactive
COc1ccc(OC)c(/C=C/C(=O)OCC(=O)Nc2nnc(-c3ccccc3)o2)c1 | inactive
COC(=O)Nc1nnc(-c2ccc(OC)cc2)s1 | inconclusive: 8.2 µM [activator, partial curve]
CCC(C)(C)C1CCC2(CC1)NC(=O)N(CC(=O)NCCCc1ccccc1)C2=O (stereo not drawn) | inconclusive: 32.6 µM [inhibitor, partial curve, poor fit]
CCN(CC)C(=O)c1ccc(C(=O)c2c(C)cc(C)cc2C)cc1 | inconclusive: 25.9 µM [inhibitor, single point]
CCOc1ccc(C(=O)NCC(=O)Nc2ncccc2C)cc1OCC | inactive
N#C/C(=C\c1ccc(N2CCOCC2)o1)c1nc2ccccc2[nH]1 | inconclusive: 1.64 µM [activator, partial curve]
N#CCSc1ccccc1NC(=O)CN1C(=O)C(=O)N(Cc2ccccc2)C1=O | inconclusive: 16.4 µM [activator, single point]
O=C(NCCc1ccccc1)Nc1ccc2c(c1)OCO2 | inconclusive: 6.51 µM [activator, partial curve]
Clc1ccccc1-c1nn2c(-c3ccccn3)nnc2s1 | inconclusive: 29.1 µM [activator, partial curve, poor fit]
Clc1ccc(-c2nnc(C3CC3)o2)cc1 | inconclusive: 18.3 µM [activator, single point]
CSCC[C@H](NC(=O)[C@@H]1Cc2ccccc2CN1)C(=O)Nc1ccc2c(c1)OCCO2 | inconclusive: 18.3 µM [activator, partial curve]
O=S(=O)(Nc1cccc(-c2ccc3nncn3n2)c1)c1cccs1 | inconclusive: 25.9 µM [activator, partial curve]

SMILES | Potency
CC1Cc2ccccc2N1C(=O)c1ccc(F)c(S(=O)(=O)N2CCOCC2)c1 (stereo not drawn) | inconclusive: 23.1 µM [inhibitor, partial curve]
CCCCCCC(C)OC(=O)Nc1cccc2ccccc12 (stereo not drawn) | inconclusive: 32.6 µM [activator, partial curve, poor fit]
CC(=O)C1=C(O)C(=O)N(c2ccc(Br)cn2)C1c1ccc(F)cc1 (stereo not drawn) | inconclusive: 4.61 µM [activator, partial curve]
Brc1ccccc1-c1csnn1 | inactive
COc1ccc(NC(=O)/C(C#N)=C\c2ccc(OCc3ccc(C(=O)O)cc3)c(OC)c2)cc1 | inconclusive: 32.6 µM [activator, partial curve, poor fit]
Cc1nc2ccccc2n1Cc1ccc(Cl)cc1 | inactive
O=C(OCc1cc(=O)n2c(n1)sc1ccccc12)c1ccc(O)cc1O | inconclusive: 16.4 µM [activator, partial curve, poor fit]
Cn1c(=O)c2[nH]c(N=NNc3ccccc3F)nc2n(C)c1=O | inconclusive: 20.6 µM [inhibitor, single point]
CC(=O)c1cccc(NC(=O)c2sc(Cl)nc2C)c1 | inactive
Cc1ccc(S(=O)(=O)N2CCC(=O)N(C(COCc3ccc(Cl)c(Cl)c3)Cc3ccccc3)CC2)cc1 (stereo not drawn) | inactive
Cc1ccc(-c2nn(CC(=O)NCc3cc(-c4nn(C)c(=O)c5ccccc45)ccc3C)c(=O)c3ccccc23)cc1 | inactive
COc1ccc(NS(=O)(=O)c2ccc(N3CCN(CCO)CC3)c([N+](=O)[O-])c2)cc1 | inconclusive: 3.26 µM [inhibitor, partial curve, poor fit]
Cc1cc(C(=O)N/N=C/c2cc(Cl)cc([N+](=O)[O-])c2O)n[nH]1 | active: 13 µM
O=c1[nH]c(C2CCN(S(=O)(=O)c3ccccc3C(F)(F)F)CC2)nc2c1nnn2Cc1cccc(F)c1 | inconclusive: 25.9 µM [inhibitor, single point]
COC(=O)c1ccc(CSc2n[nH]c(C)n2)o1 | inconclusive: 20.6 µM [activator, partial curve, poor fit]
COCCNC(=O)CN(c1cccc(OC)c1)S(=O)(=O)c1ccc(C)cc1 | inactive
C=CCN1C(=O)C(CC(=O)Nc2ccccc2)SC1=Nc1ccc(S(N)(=O)=O)cc1 (stereo not drawn) | inconclusive: 18.4 µM [inhibitor, single point]
COc1ccccc1CNC(=O)COC(=O)c1cccs1 | inconclusive: 0.058 µM [inhibitor, full curve, poor fit]
COc1ccc(CCN2C(=O)CC(N3CCN(c4ccccn4)CC3)C2=O)cc1OC (stereo not drawn) | inconclusive: 1.3 µM [activator, single point]
CCCc1oc(C(=O)O)cc1CN1CCOCC1 | inconclusive: 6.51 µM [inhibitor, single point]
O=c1[nH]c(C2CCCN(S(=O)(=O)c3ccccc3)C2)nc2c1nnn2Cc1ccccc1Br (stereo not drawn) | inconclusive: 29.1 µM [inhibitor, single point]

Part of the list above in order of count of non-hydrogen atoms, ascending.
SMILES | Potency
Brc1ccccc1-c1csnn1 | inactive
CCCCCCCSc1nsc(N)n1 | inconclusive: 29.1 µM [activator, single point]
COC(=O)Nc1nnc(-c2ccc(OC)cc2)s1 | inconclusive: 8.2 µM [activator, partial curve]
O=C(NCCc1ccccc1)Nc1ccc2c(c1)OCO2 | inconclusive: 6.51 µM [activator, partial curve]
CCCCCCC(C)OC(=O)Nc1cccc2ccccc12 (stereo not drawn) | inconclusive: 32.6 µM [activator, partial curve, poor fit]
Cc1cccc(N(Cc2cc(=O)[nH]c3ccccc23)C(=O)CCl)c1 | inconclusive: 25.9 µM [inhibitor, single point]
CCOc1ccc(C(=O)NCC(=O)Nc2ncccc2C)cc1OCC | inactive
CC1Cc2ccccc2N1C(=O)c1ccc(F)c(S(=O)(=O)N2CCOCC2)c1 (stereo not drawn) | inconclusive: 23.1 µM [inhibitor, partial curve]
O=S(=O)(NC1CC(NS(=O)(=O)OCC(Cl)(Cl)Cl)C2CCCCC12)OCC(Cl)(Cl)Cl (stereo not drawn) | inconclusive: 29.1 µM [inhibitor, partial curve, poor fit]
COc1ccc(OC)c(/C=C/C(=O)OCC(=O)Nc2nnc(-c3ccccc3)o2)c1 | inactive
COc1ccc(CCN2C(=O)CC(N3CCN(c4ccccn4)CC3)C2=O)cc1OC (stereo not drawn) | inconclusive: 1.3 µM [activator, single point]
